Screen size: about 330,000 compounds; about 7,700 (2.3%) were called active. The shares of active, inactive and inconclusive entries below differ from those in the screen. The call rests on the fitted dose curve; in most records, active means well fitted inhibition curve with a large enough effect; inconclusive means small, poorly fitted or top-dose-only effect, or effect the other way; inactive means flat fitted curve, though single readings scatter. Where the call is inconclusive, the potency comes from a doubtful curve fit.
Assay: qHTS screen for small molecules that inhibit ELG1-dependent DNA repair in human embryonic kidney (HEK293T) cells expressing luciferase-tagged ELG1; further: nearly all actives have a fitted effect of over 55% in size
Details: HEK293T ELG1-luciferase reporter, luminescence, 16 h, DNA damage induced by 5-fluorouridine; activity change, negative = inhibition: at 46.1 µM (top of the series)
In short: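 Step one: seed 2,000 cells per well. Step two: pin-transfer compound or DMSO alongside 5-fluorouridine. Step three: incubate 16 hr, 37 °C, 5% CO2. Step four: add ONE-Glo, wait 30 min, read luminescence.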
On the % scale 0 is the no-effect control and ±100 the full control effect; potency means the concentration at half of the fitted maximal effect.

Structure (SMILES) | Potency | activity change, negative = inhibition
O=C(c1ccsc1)N1CCCC(Nc2ccc(F)c(F)c2)C1 (centres undefined) | inconclusive: 25.9 µM [activator, partial curve, poor fit] | –
O=C(Nc1cccc(Cl)c1)Nc1csc([N+](=O)[O-])c1 | inconclusive: 13 µM [inhibitor, partial curve, poor fit] | –
COc1ccc(NC(=S)Nc2ccccn2)c(OC)c1 | inconclusive: 29.1 µM [inhibitor, single point] | –
O=C(Nc1ccc(CN2CCOCC2)cc1)c1ccc(-c2ccc(Br)cc2)o1 | active: 18.4 µM | –
CN1CCN(c2nc3ccccc3nc2C(C#N)C(=O)OC2CCCCC2)CC1 (centres undefined) | inconclusive: 20.6 µM [inhibitor, single point] | –
COC(=O)C1=CN(CC2CCCO2)C=C(C(=O)OC)C1c1ccccc1C(F)(F)F (centres undefined) | – | inactive: -5.76%
COCCNC(=S)NCCCNc1nc2cc3c(cc2cc1C#N)OCO3 | – | inactive: 0%
Cc1ccc(CNC(=O)c2cc(C3CC3)nc3c2cnn3C(C)C)cc1 | inconclusive: 29.1 µM [inhibitor, single point] | –
CCc1nnc(NC(=O)CSc2nnc(CSc3nc(C)cc(C)n3)o2)s1 | – | inactive: 0%
CN(C1CCCCC1)S(=O)(=O)c1cc2c(cc1Cl)NC(=O)CO2 | – | inactive: 3.63%
C/C(=N\NC(=O)Cc1ccc(Cl)c(Cl)c1)c1cccnc1 | – | inactive: -21.2%
O=C(NC(=S)N1CCc2ccccc21)c1ccc(Br)o1 | – | inactive: -0.225%
Cc1cccc(C)c1NC(=S)N(CCCN1CCN(C)CC1)Cc1cccs1 | inconclusive: 6.51 µM [inhibitor, single point] | –
CCN1C(=O)/C(=C\c2cn(-c3ccccc3)nc2-c2cccnc2)SC1=S | – | inactive: 12.9%
COc1ccc(-n2ncc3c(N4CCCCC4)ncnc32)cc1 | inconclusive: 0.0651 µM [activator, full curve, poor fit] | –
CCOc1ccc(N2C(=O)CC(NCCc3c[nH]c4ccccc34)C2=O)cc1 (centres undefined) | – | inactive: -11.6%
Cc1ccc(CNC(=O)CCC2CCCN(Cc3cccc4ncccc34)C2)o1 (centres undefined) | – | inactive: -2.87%
c1ccc(-c2ccc(CN3CCSCC3)cc2)cc1 | inconclusive: 29.1 µM [activator, single point] | –
CCOc1cc(/C=N/NC(=O)OC)ccc1OCCSc1ccc(Cl)cc1 | inconclusive: 20.6 µM [inhibitor, single point] | –
CC1=C(C(=O)OC(C)C)C(C)C(C(=O)OC(C)C)=C(C)N1 | inconclusive: 29.1 µM [inhibitor, single point] | –
CS(=O)(=O)c1ccc2c(c1)SC1=NC(=O)/C(=C/c3ccco3)C(=N)N12 | inconclusive: 20.6 µM [activator, partial curve, poor fit] | –
CCOc1cc(C(=S)N2CCOCC2)ccc1OC(=O)c1ccc(C)cc1 | inconclusive: 29.1 µM [inhibitor, single point] | –
O=C(COC(=O)c1ccccc1NCCO)Nc1cc(C(F)(F)F)ccc1N1CCOCC1 | inconclusive: 29.1 µM [inhibitor, single point] | –
COc1ccc(C(C(=O)NC(C)(C)C)N(C(=O)CCC(=O)Nc2cc(C)on2)c2ccc(C)c(C)c2)cc1 (centres undefined) | – | inactive: -15.1%
CCOC(=O)CN(Cc1ccc(OC)c(OC)c1)S(=O)(=O)c1ccc(OC)cc1 | – | inactive: 3.12%

Structure (SMILES) | Potency | activity change, negative = inhibition
CC(=O)c1c(C)[nH]c(C(=O)N2CCc3ccccc32)c1C | inconclusive: 20.6 µM [activator, single point] | –
N#Cc1cnn(Cc2ccc(Cl)cc2)c1N | – | inactive: 20.1%
COC(=O)COc1ccc(S(=O)(=O)Nc2ccc3c(c2)OCCO3)cc1C | inconclusive: 20.6 µM [activator, single point] | –
Cc1ncc(CO)c(CNc2ccc(Oc3ccccc3)cc2)c1O | inconclusive: 2.59 µM [inhibitor, full curve] | –
CSc1cccc(NC(C)C(=O)NCc2ccccc2)c1 (centres undefined) | inconclusive: 1.03 µM [inhibitor, single point] | –
Cc1cc2cc(CCNC(=O)c3cccs3)c(=O)[nH]c2cc1C | inconclusive: 5.17 µM [activator, partial curve] | –
Cc1ccccc1C(=O)Nc1nnc(SCC(=O)NCc2ccco2)s1 | inconclusive: 4.61 µM [activator, full curve] | –
O=C(Nc1ccc(Cl)cn1)c1cccc(S(=O)(=O)N2CCOCC2)c1 | inconclusive: 23.1 µM [inhibitor, single point] | –
COc1ccc(NC(=O)c2ccc(-c3ccc(C(C)=O)cc3)o2)cn1 | inconclusive: 8.2 µM [activator, single point] | –
CCOc1ccc(CCNC(=O)CN2C(=O)NC3(CCCCCC3)C2=O)cc1OCC | – | inactive: 2.82%
CC(C)c1onc(C(=O)NCCc2ccccc2)c1[N+](=O)[O-] | inconclusive: 29.1 µM [activator, single point] | –
Cn1c(SCc2ccccc2Br)nc2ccccc2c1=O | – | inactive: -24%
COc1ccc2c(c1OC)C(=O)N(c1ccc(O)cc1)C2 | inconclusive: 11.6 µM [activator, partial curve] | –
CC(=O)Nc1nc(-c2cccc3ccccc23)cs1 | inconclusive: 20.6 µM [activator, partial curve, poor fit] | –
COC(=O)c1ccc(NC(c2ccc(Cl)cc2)P(=O)(OC)OC)cc1 (centres undefined) | inconclusive: 20.6 µM [activator, single point] | –
Cc1cc(C)c2c(n1)nn1c(NCCOCCO)cc(C)nc21 | – | inactive: 6%
COc1ccc(CCN(C)Cc2c(O)ccc3ccccc23)cc1OC | – | inactive: -19.3%
Cc1ccccc1CNC(=O)c1ccc2nc(N3CCOCC3)sc2c1 | – | inactive: -15.9%
c1ccc2nc3c(nc2c1)c1ccccc1n3CCN1CCOCC1 | inconclusive: 22.4 µM [inhibitor, single point] | –
COc1ccccc1CC(=O)Nc1ccc2nc(C)sc2c1 | inconclusive: 20.6 µM [activator, partial curve] | –
CNC(=S)N(Cc1cc2ccc(OC)cc2[nH]c1=O)CC1CCCO1 (centres undefined) | – | inactive: 1.75%
COCCCn1c(SCc2nnc(-c3ccc(OC)c(OC)c3)o2)nc2ccccc2c1=O | active: 11.6 µM | –
CCOC(=O)Cc1cc(=O)n2[nH]cc(-c3cccc(Br)c3)c2n1 | inconclusive: 20.6 µM [inhibitor, single point] | –
CCC1CCCCN1CCCNC(=O)CSc1nc2nc(C)c(Cc3ccc(C)cc3)c(C)n2n1 (centres undefined) | – | inactive: -15.5%
Cc1cc(C)c(C#N)c(SCS(=O)c2ccc(C(C)(C)C)cc2)n1 (centres undefined) | inconclusive: 20.6 µM [inhibitor, partial curve] | –

Four of the compounds above, as a markdown table:

| Structure (SMILES) | Potency | activity change, negative = inhibition |
| --- | --- | --- |
| CC(C)c1onc(C(=O)NCCc2ccccc2)c1[N+](=O)[O-] | inconclusive: 29.1 µM [activator, single point] | – |
| Cn1c(SCc2ccccc2Br)nc2ccccc2c1=O | – | inactive: -24% |
| COc1ccc2c(c1OC)C(=O)N(c1ccc(O)cc1)C2 | inconclusive: 11.6 µM [activator, partial curve] | – |
| CC(=O)Nc1nc(-c2cccc3ccccc23)cs1 | inconclusive: 20.6 µM [activator, partial curve, poor fit] | – |

Later entries.

Structure (SMILES) | Potency | activity change, negative = inhibition
COC(C[C@@H](O)C[C@H](O)[C@@H](C)OCc1ccccc1)OC | – | inactive: 22.3%
O=c1[nH]c(Cc2ccccn2)nc2scc(-c3ccc(Cl)cc3)c12 | inconclusive: 32.6 µM [inhibitor, partial curve, poor fit] | –
CC1Cc2ccccc2N1C(=O)CSc1nnc(-c2ccc(S(=O)(=O)N3CCOCC3)cc2)n1C (centres undefined) | inconclusive: 23.1 µM [inhibitor, single point] | –
COc1ccc(NS(=O)(=O)c2ccc(NC(C)=O)cc2)c(OC)c1 | – | inactive: -9.43%
CN(C)c1ccc(/C=N/NC(=O)c2cccc(N3CCCC3=O)c2)cc1 | inconclusive: 18.3 µM [activator, partial curve, poor fit] | –
Cc1occc1-c1nnc(SCC(=O)N(C)C)o1 | inconclusive: 29.1 µM [inhibitor, single point] | –
COc1ccc(NC2CCCN(Cc3cccc4cnccc34)C2)cc1OC (centres undefined) | – | inactive: -22.2%
COc1ccc(C(=O)COc2ccccc2C(N)=O)cc1 | – | inactive: -11.2%
COCCCNC(=O)CCCN1C(=O)c2cccnc2Sc2ccccc21 | – | inactive: 16.9%
CCNC(=S)/N=C(/Nc1ccccc1)Nc1nc(C)cc(C)n1 | inconclusive: 25.9 µM [inhibitor, single point] | –
COc1cccc(N2CCN(Cc3nc4scc(-c5ccccc5)c4c(=O)[nH]3)CC2)c1 | inconclusive: 23.1 µM [inhibitor, single point] | –
CN(C(=O)c1cccc(N2C(=O)C3CC=CCC3C2=O)c1)C1CCCCC1 (centres undefined) | inconclusive: 29.1 µM [inhibitor, single point] | –
Cc1ccc(C)c(OCc2cc(C(=O)N3CCc4sccc4C3)no2)c1 | – | inactive: -23.4%
COc1ccc(OCC(=O)Nc2cc(-c3nn(C)c(=O)c4ccccc34)ccc2OC)cc1 | inconclusive: 20.6 µM [inhibitor, partial curve, poor fit] | –
CCOC(=O)CCNC(=O)N1CCCC(CNS(=O)(=O)Cc2ccccc2)C1 (centres undefined) | – | inactive: -11.8%
O=C(NCC1CCCO1)c1cccc(N2CCCC2=O)c1 (centres undefined) | inconclusive: 20.6 µM [activator, partial curve, poor fit] | –
CCn1c(SCC(=O)Nc2ccc(OC)c(OC)c2)nnc1-c1cccs1 | – | inactive: -11.3%
COc1ccc(C(=O)c2coc3ccc(OC(C)=O)cc23)cc1 | inconclusive: 5.8 µM [activator, full curve] | –
Clc1cccc(OCc2nc(-c3ccncc3)n[nH]2)c1 | – | inactive: 4%
COc1cccc(CNc2ncc(Br)cc2Br)c1O | inconclusive: 25.9 µM [activator, single point] | –
O=[N+]([O-])c1cccc(N/N=C/c2ccc(N3CCOCC3)cc2)c1 | inconclusive: 20.6 µM [activator, partial curve] | –
CNC(=O)CSc1nnc(-c2ccco2)n1-c1cccc(OC)c1 | – | inactive: 11.2%
Cc1ccc(NC(=O)NC2CC(=O)N(c3ccc4c(c3)OCCO4)C2)cc1F (centres undefined) | inconclusive: 0.651 µM [activator, single point] | –
C/C(=C/c1ccccc1)C(=O)N1CCC(C)CC1 | inconclusive: 23.1 µM [activator, single point] | –
